Hit rate of the full screen: of about 360,000 compounds, about 7,500 (2.1%) were called active. The shares of active, inactive and inconclusive entries below differ from those in the screen. The call rests on the fitted dose curve; in most records, active means well fitted inhibition curve with a large enough effect; inconclusive means small, poorly fitted or top-dose-only effect, or effect the other way; inactive means flat fitted curve, though single readings scatter. Potencies beside an inconclusive call are fits to weak or partial responses and may not hold up.
Test: Nrf2 qHTS screen for inhibitors; further: nearly all actives have a fitted effect of over 60% in size
Conditions: A549 ARE-Fluc reporter, luciferase luminescence, 18-24 h; series mostly up to 46 µM
Summary of the method: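 Reporter: ARE-Fluc in A549. Exposure: 18-24 h, 37 °C, 5% CO2, 5% FBS OPTI-MEM. Readouts: fluorescent cytotoxicity (CellTiter-Fluor), then luminescent Nrf2 signal after BugLite.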
Potency means the concentration at half of the fitted maximal effect.

| SMILES | Potency |
| --- | --- |
| Cc1sc(NC(=O)CS(=O)(=O)c2ccccc2)c(C(N)=O)c1C | inconclusive: 10.3 µM [activator, partial curve] |
| CN(c1ccc(OCC(=O)NCc2cccnc2)cc1)S(=O)(=O)c1ccc(Cl)cc1 | inconclusive: 18.4 µM [falling, partial curve, poor fit] |
| CCC(=NCc1ccc(Cl)c(Cl)c1)c1nc(-c2ccco2)oc1O | inconclusive: 18.4 µM [falling, single point] |
| Cc1cccc(/C=C2\Sc3ccc(C(=O)NCC4CCCO4)cc3N(C)C2=O)c1 (centres undefined) | inconclusive: 18.4 µM [falling, single point] |
| Fc1cccc(CSc2ccc3nnc(-c4cccnc4)n3n2)c1 | inconclusive: 29.1 µM [falling, partial curve, poor fit] |
| CNc1snc(C)c1C(=O)OC(C)C(=O)Nc1cccc(OC)c1 (centres undefined) | inconclusive: 29.1 µM [falling, single point] |
| O=C(NCCc1ccccc1F)C(=O)Nc1nccs1 | inconclusive: 2.31 µM [activator, full curve] |
| COc1ccc(NC(=O)Nc2cccc3c2O[C@H](CN(C)S(=O)(=O)c2cn(C)cn2)[C@@H](C)CN([C@H](C)CO)C3=O)cc1 | inactive |
| Cc1c(Br)c([N+](=O)[O-])nn1CC(=O)NCc1ccco1 | inactive |
| Cc1cccc(NC(=O)c2cc3ccccc3oc2=O)c1 | inconclusive: 5.17 µM [activator, full curve] |
| FC(F)(F)c1ccc(/C=N/NC(=S)NC2CCCCC2)cc1 | inactive |
| Cc1ccc(S(=O)(=O)Cc2ccc(C(=O)NCc3ccc4c(c3)OCO4)o2)cc1 | inconclusive: 29.1 µM [falling, single point] |
| O=C(O)CSc1cc(C(F)(F)F)nc(-c2ccccn2)n1 | inconclusive: 23.1 µM [falling, partial curve] |
| Cn1ncc2c(Nc3ccc(-c4ccccc4)cc3)ncnc21 | inconclusive: 9.2 µM [activator, partial curve] |
| Cc1ccc(-c2cc3c(N4CCN(c5cc(C)ccc5C)CC4)nccn3n2)cc1 | inconclusive: 14.6 µM [falling, partial curve, poor fit] |
| O=C(NCCCc1ccccc1)c1cccc(NC(=O)C2CCCCC2)c1 | inconclusive: 14.6 µM [falling, single point] |
| Cc1cc(-c2ccccc2)nc(N/N=C/c2ccc(O)cc2)n1 | inactive |
| COc1cccc(C2C(C#N)=C(NC(=O)NCc3ccccc3)Oc3ccc4ccccc4c32)c1 (centres undefined) | inactive |
| COc1ccc(CNC(=O)C2CCCN(S(=O)(=O)c3ccc4c(c3)C(C)(C)C(=O)N4C)C2)cc1 (centres undefined) | inconclusive: 10.3 µM [falling, partial curve] |

Reformatted: entries from further up.
CCC(=NCc1ccc(Cl)c(Cl)c1)c1nc(-c2ccco2)oc1O
  Potency: inconclusive: 18.4 µM [falling, single point]
Cc1cccc(/C=C2\Sc3ccc(C(=O)NCC4CCCO4)cc3N(C)C2=O)c1 (centres undefined)
  Potency: inconclusive: 18.4 µM [falling, single point]

Reference: PubChem BioAssay AID504444 (National Center for Advancing Translational Sciences (NCATS), 2011)
